In PMC3289644 one finds binding data, which are given here for 1 substance.

Sequences of proteins named here, by UniProt entry; tags and fusion partners are left off. A change or cut given only in a name is not applied to a line headed by its entry. A line that says so, or that is headed by a name, gives the form on record, which may keep a tag or linker.
Recombinant FH19–20 (complement factor H, CCP modules 19–20) (P08603, form named): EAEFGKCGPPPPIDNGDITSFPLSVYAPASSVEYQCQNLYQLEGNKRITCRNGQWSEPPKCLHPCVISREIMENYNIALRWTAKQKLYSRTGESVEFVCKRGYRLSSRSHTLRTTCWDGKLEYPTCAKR

The test concerns the target Recombinant FH19–20 (complement factor H, CCP modules 19–20) (human) (UniProt P08603). The test can be described thus: condition: 2.4, 4.6 and 7.9 mg/ml; merged data extrapolated to infinite dilution; small-angle X-ray scattering (SAXS); protein alone in solution, 20°C, PBS pH 7.4, 1 mM DTT; 1.9, 3.8 and 7.6 mg/ml (FH18–20), 2.4, 4.6 and 7.9 mg/ml (FH19–20); MW from I(0) of merged data extrapolated to infinite dilution, and from particle volumes; both purified.

No constants are given. Whether binding was seen depends on the method and setting.

“Recombinant FH19–20 (complement factor H, CCP modules 19–20) (from UniProt P08603 1107-1231) (domain or fragment)”: the binding result is reported as “no binding”.
